{"source": "patent US20260286287A1", "about": "“NOVEL BACTERIAL STRAIN USEFUL FOR TREATING CUTANEOUS INFLAMMATION” (PIERRE FABRE DERMO-COSMETIQUE, priority 2023, published 2026)", "tested_on": "normal human epidermal keratinocytes (NHEK) stimulated by an inflammatory cytokine mix (IL-4+IL-13+IL-22+TNF-α)", "experiment": "Gene expression (RT-qPCR) in cytokine-stimulated normal human epidermal keratinocytes, in vitro model of chronic atopic dermatitis", "type": "cell-based", "details": "cytokine mix 10 ng/ml + JAK inhibitor I 10 μM, Mean HK normalisation, 1440 min", "description": "The effects of the bacterial extracts prepared in example 3 (i.e., L0, BL0, S0 and ES0) on gene expression were assessed with normal human epidermal keratinocytes (NHEK) which have been stimulated by an inflammatory cytokine mix (IL-4+IL-13+IL-22+TNF-α), a particularly useful model representative of the chronic phase of atopic dermatitis.\nKeratinocytes were seeded in 24-well plates and grown for 24 hours in growth medium with culture conditions at 37° C. and 5% C02. The growth medium comprised Keratinocyte SFM (Serum Free Medium) supplemented with Epidermal Growth Factor (EGF) 0.25 ng/ml, Pituitary extract (PE) 25 μg/ml and Gentamycin 25 μg/ml. The medium was then removed and replaced by assay medium containing either no added extract or compound (negative control), one of the bacterial extracts of example 3 (L0, BL0, S0 or ES0), or the reference compound (JAK Inhibitor | at 10 μM). Cells were then pre-incubated for 24 hours. The assay medium comprised Keratinocyte SFM supplemented with Gentamycin 25 μg/ml.\nAfter pre-incubation, the assay medium was renewed, the mix of cytokines (IL-4+IL-13+TNF-α +IL-22, each at 10 ng/ml) added and the cells then incubated for 24 hours. […]\nRT-qPCR (real time quantitative PCR) was used to analyse the expression of markers in total RNA extracted from the cell monolayers of each experimental condition. […]", "data": [{"molecule": "CC(C)(C)c1nc2c3cc[nH]c(=O)c3c3cc(F)ccc3c2[nH]1", "note": "[JAK inhibitor I]", "values": [{"measurement": "GAPDH (housekeeping) gene expression", "value": 99, "unit": "% control"}, {"measurement": "RPS28 (housekeeping) gene expression", "value": 102, "unit": "% control"}]}]}
